US20260176358A1
No constants are given. Whether binding was seen depends on the method and setting. Some results given as binding are weak or reduced against the parent protein; the word gives no strength.

T1: rat CGRP (rat) (UniProt P01256)
T1 sequence (peptide, looked up): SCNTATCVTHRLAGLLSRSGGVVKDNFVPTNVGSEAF


Columns and labels:
human CGRP (human) = human CGRP (human) (UniProt P06881); experiment: ELISA
rat CGRP (rat) = biological target: T1, rat CGRP (rat); experiment: ELISA

Binder	binding (human CGRP (human))	binding (rat CGRP (rat))
C28#-CHI (antibody, human IgG1, kappa, V domains shown) VH: EVQLQQSGPELVKPGASVKISCEASGYTFTDYYMNWVKQSHGKSLEWIGDINPNNGVTTYNQKFKGKATLTVDKSSSTAYMELRSLTSEDSAVYYCASIIIVPDYFDYWGQGTTLTVSS VL: DIVMTHSQKFMSTSVGDRVSVTCKASQNVGSNVAWYQEKPGQSPKALIYSASYRYSGVPDRFTGSGSGTDFTLTISNVQSEDLAEYFCQQYNSYPYTFGGGTKLEIKR	binds	binds
C21H3L1 (antibody, human IgG1, kappa, V domains shown) VH: EVQLVQSGAEVKKPGASVKVSCKASGYTFTDYYMNWVRQAPGQRLEWMGDINPNSGGTNYNQKFKGRVTITVDKSASTAYMELSSLRSEDTAVYYCASIIIVPNYFDYWGQGTTVTVSS VL: DIQMTQSPSSLSASVGDRVTITCKASQNVDTNVAWFQQKPGKAPKSLIYSASYRYSGVPSRFSGSGSGTDFTLTISSLQPEDFATYYCQQYNNYPYTFGGGTKVEIKR	binds	binds
C21H4L2 (antibody, human IgG1, kappa, V domains shown) VH: EVQLVQSGAEVKKPGASVKVSCKASGYTFTDYYMNWVRQAPGQRLEWIGDINPNTGGTNYNQKFKGRATLTVDKSASTAYMELSSLRSEDTAVYYCASIIIVPNYFDYWGQGTTVTVSS VL: DIQMTQSPSSLSASVGDRVTITCKASQNVDTNVAWFQQKPGKSPKALIYSASYRYSGVPSRFSGSGSGTDFTLTISSLQPEDFATYYCQQYNNYPYTFGGGTKVEIKR	binds	binds
C21H4L1 (antibody, human IgG1, kappa, V domains shown) VH: EVQLVQSGAEVKKPGASVKVSCKASGYTFTDYYMNWVRQAPGQRLEWIGDINPNTGGTNYNQKFKGRATLTVDKSASTAYMELSSLRSEDTAVYYCASIIIVPNYFDYWGQGTTVTVSS VL: DIQMTQSPSSLSASVGDRVTITCKASQNVDTNVAWFQQKPGKAPKSLIYSASYRYSGVPSRFSGSGSGTDFTLTISSLQPEDFATYYCQQYNNYPYTFGGGTKVEIKR	binds	binds
C28H1L1 (antibody, human IgG1, kappa, V domains shown) VH: EVQLVQSGAEVKKPGASVKVSCKASGYTFTDYYMNWVRQAPGQRLEWMGDINPNNVVTTYNQKFKGRVTITVDKSASTAYMELSSLRSEDTAVYYCASIIIVPDYFDYWGQGTTVTVSS VL: DIQMTQSPSSVSASVGDRVTITCKASQNVGSNVAWYQQKPGKSPKALIYSASYRYSGVPSRFSGSGSGTDFTLTISSLQPEDFATYYCQQYNSYPYTFGGGTKVEIKR	binds	binds

Now from value to binder:

binding (human CGRP (human))	binding (rat CGRP (rat))	Binder
binds	binds	C28H5L1 (antibody, human IgG1, kappa, V domains shown) VH: EVQLVQSGAEVKKPGASVKVSCKASGYTFTDYYMNWVRQAPGQRLEWIGDINPNSGVTTYNQKFKGRATLTVDKSASTAYMELSSLRSEDTAVYYCASIIIVPDYFDYWGQGTTVTVSS VL: DIQMTQSPSSVSASVGDRVTITCKASQNVGSNVAWYQQKPGKSPKALIYSASYRYSGVPSRFSGSGSGTDFTLTISSLQPEDFATYYCQQYNSYPYTFGGGTKVEIKR
binds	binds	C28H2L1 (antibody, human IgG1, kappa, V domains shown) VH: EVQLVQSGAEVKKPGASVKVSCKASGYTFTDYYMNWVRQAPGQRLEWIGDINPNNVVTTYNQKFKGRATLTVDKSASTAYMELSSLRSEDTAVYYCASIIIVPDYFDYWGQGTTVTVSS VL: DIQMTQSPSSVSASVGDRVTITCKASQNVGSNVAWYQQKPGKSPKALIYSASYRYSGVPSRFSGSGSGTDFTLTISSLQPEDFATYYCQQYNSYPYTFGGGTKVEIKR
binds	binds	C28H3L1 (antibody, human IgG1, kappa, V domains shown) VH: EVQLVQSGAEVKKPGASVKVSCKASGYTFTDYYMNWVRQAPGQRLEWMGDINPNQGVTTYNQKFKGRVTITVDKSASTAYMELSSLRSEDTAVYYCASIIIVPDYFDYWGQGTTVTVSS VL: DIQMTQSPSSVSASVGDRVTITCKASQNVGSNVAWYQQKPGKSPKALIYSASYRYSGVPSRFSGSGSGTDFTLTISSLQPEDFATYYCQQYNSYPYTFGGGTKVEIKR
binds	binds	C28H7L1 (antibody, human IgG1, kappa, V domains shown) VH: EVQLVQSGAEVKKPGASVKVSCKASGYTFTDYYMNWVRQAPGQRLEWIGDINPNTGVTTYNQKFKGRATLTVDKSASTAYMELSSLRSEDTAVYYCASIIIVPDYFDYWGQGTTVTVSS VL: DIQMTQSPSSVSASVGDRVTITCKASQNVGSNVAWYQQKPGKSPKALIYSASYRYSGVPSRFSGSGSGTDFTLTISSLQPEDFATYYCQQYNSYPYTFGGGTKVEIKR
binds	binds	C28H4L1 (antibody, human IgG1, kappa, V domains shown) VH: EVQLVQSGAEVKKPGASVKVSCKASGYTFTDYYMNWVRQAPGQRLEWIGDINPNQGVTTYNQKFKGRATLTVDKSASTAYMELSSLRSEDTAVYYCASIIIVPDYFDYWGQGTTVTVSS VL: DIQMTQSPSSVSASVGDRVTITCKASQNVGSNVAWYQQKPGKSPKALIYSASYRYSGVPSRFSGSGSGTDFTLTISSLQPEDFATYYCQQYNSYPYTFGGGTKVEIKR
binds	binds	C28H6L1 (antibody, human IgG1, kappa, V domains shown) VH: EVQLVQSGAEVKKPGASVKVSCKASGYTFTDYYMNWVRQAPGQRLEWMGDINPNTGVTTYNQKFKGRVTITVDKSASTAYMELSSLRSEDTAVYYCASIIIVPDYFDYWGQGTTVTVSS VL: DIQMTQSPSSVSASVGDRVTITCKASQNVGSNVAWYQQKPGKSPKALIYSASYRYSGVPSRFSGSGSGTDFTLTISSLQPEDFATYYCQQYNSYPYTFGGGTKVEIKR
